The list shows a part of the results. Values are raw readings; no control value is given beside them.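 In the initial screen, polymyxin B was used at a concentration that permeabilizes Salmonella's outer membrane but not its inner membrane. Maximum growth was set by DMSO wells with or without polymyxin B. Since plates varied, data were ranked per plate, and compounds giving the lowest OD600 advanced as hits.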
System: Salmonella enterica serovar Typhimurium SL1344
Test: bacterial growth OD600 after 18 h with compound and polymyxin B; higher = more bacterial growth (less inhibition)
Conditions: 50 µM, Mueller-Hinton broth

With `C=CCC(=O)N1CCCC(CCc2ccccc2C(F)(F)F)C1` (stereo unspecified) the “bacterial growth OD600” value (polymyxin B 0.75 µg/mL) was 0.298.

With `CCOC(=O)N1CCC(NC(=O)C2CC23CCN(C(=O)c2ccc(-n4cccn4)cc2)CC3)CC1` (stereo unspecified) the “bacterial growth OD600” value (polymyxin B 0.75 µg/mL) was 0.828.

With `CN(C)c1ccc(C(=O)N2CCC(CCn3cccn3)CC2)cn1` the “bacterial growth OD600” value (polymyxin B 1 µg/mL) was 0.931.

In the case of `Cc1ccc2c(c1)CN(Cc1cccc(O)c1)CC(C)O2` (stereo unspecified), the “bacterial growth OD600” value (polymyxin B 0.75 µg/mL) is reported as 0.846.

With `CCN1CCC(C(=O)Nc2cccc(-c3nnc(C)s3)c2)CC1` the “bacterial growth OD600” value (polymyxin B 1 µg/mL) was 1.26.

With `COCCO[C@H]1[C@H](NC(=O)C(C)C)c2ccccc2C12CCN(C(=O)[C@@H](O)c1ccccc1)CC2` the “bacterial growth OD600” value (polymyxin B 0.75 µg/mL) was 0.812.

In the case of `COc1ccc(CC2=NOC(CNC(=O)c3ccc(-n4nc(C)cc4C)cc3)C2)cc1` (stereo unspecified), the “bacterial growth OD600” value (polymyxin B 0.75 µg/mL) is reported as 0.842.

For `CC(C)=CCN1CCC(C(=O)Nc2cccc(-c3nnc(C)s3)c2)CC1`, the “bacterial growth OD600” value (polymyxin B 1 µg/mL) was 1.09.

With `O=C(CC1=CCCCC1)N1CCc2onc(-c3ccccc3F)c2C1` the “bacterial growth OD600” value (polymyxin B 0.75 µg/mL) was 0.407.

With `COc1ccc(-c2n[nH]cc2CN2CCOc3ccc(C(O)Cc4ccccc4)cc3C2)cc1` (stereo unspecified) the “bacterial growth OD600” value (polymyxin B 0.75 µg/mL) was 0.006.

In the case of `CCOC(=O)C1CCN(C2CCN(c3nc4nonc4nc3N(C)C)CC2)CC1`, the “bacterial growth OD600” value (polymyxin B 0.75 µg/mL) is reported as 0.866.

For `C=CCOc1ccccc1CN1CC[C@@H](N2CCN(c3ccccn3)CC2)[C@H](O)C1`, the “bacterial growth OD600” value (polymyxin B 1 µg/mL) was 0.973.

`O=C(Cn1nnnc1CN1CCOCC1)NCCc1ccc(F)cc1` was tested, and the “bacterial growth OD600” value (polymyxin B 0.75 µg/mL) was 0.869.

`Cc1nnsc1C(=O)NC(C)c1cnn(-c2cccc3ccccc23)c1C` (stereo unspecified) was tested, and the “bacterial growth OD600” value (polymyxin B 1 µg/mL) was 0.905.

For `CCOC(=O)C1(CCOc2ccccc2)CCCN(Cc2cnc(N(C)C)s2)C1` (stereo unspecified), the “bacterial growth OD600” value (polymyxin B 1 µg/mL) was 0.447.

In the case of `COc1ccccc1NC(=O)Nc1ccnn1C1CCN(Cc2cccc(C)n2)CC1`, the “bacterial growth OD600” value (polymyxin B 0.75 µg/mL) is reported as 0.828.

With `CCn1nc(C)c(CNC2CCN(c3ccc(C(=O)N4CCCC(CO)C4)cc3)CC2)c1C` (stereo unspecified) the “bacterial growth OD600” value (polymyxin B 0.75 µg/mL) was 0.844.

With `Cc1ccc(C(=O)N2CCc3onc(-c4cccc(F)c4)c3C2)s1` the “bacterial growth OD600” value (polymyxin B 0.75 µg/mL) was 0.006.

In the case of `Cc1ccc(C(=O)Nc2ccc(N3CCC(NCc4ccc(C)o4)CC3)cc2)c(C)c1`, the “bacterial growth OD600” value (polymyxin B 0.75 µg/mL) is reported as 0.904.

With `O=C1N(CC2CCC2)CCCC12CCN(C1Cc3ccccc3C1)C2` (stereo unspecified) the “bacterial growth OD600” value (polymyxin B 1 µg/mL) was 0.053.

With `COc1ccc2c(c1)CC(C(=O)N1CCC(CCC(=O)Nc3ccccc3)CC1)CO2` (stereo unspecified) the “bacterial growth OD600” value (polymyxin B 1 µg/mL) was 1.1.

For `O=C(NCC1CC(Cc2ccc(F)cc2)=NO1)c1csc(-c2cccs2)n1` (stereo unspecified), the “bacterial growth OD600” value (polymyxin B 0.75 µg/mL) was 0.066.

With `COC(=O)CCCC(=O)N1CCCC(N2CCN(c3cccc(Cl)c3)CC2)C1` (stereo unspecified) the “bacterial growth OD600” value (polymyxin B 1 µg/mL) was 0.744.

`CSc1ccc(CC2(CCC(=O)N(Cc3c(C)nn(C)c3C)C(C)C)CCC(=O)N2)cc1` (stereo unspecified) was tested, and the “bacterial growth OD600” value (polymyxin B 0.75 µg/mL) was 0.844.

With `COC(=O)[C@@H]1CCCN1c1ccc(-c2nc(COc3ccccc3)no2)cn1` the “bacterial growth OD600” value (polymyxin B 1 µg/mL) was 0.817.

With `CN(Cc1cccc2ncccc12)C(=O)CC1(c2cccc(C(F)(F)F)c2)CC(=O)N(C2CC2)C1=O` (stereo unspecified) the “bacterial growth OD600” value (polymyxin B 0.75 µg/mL) was 0.633.

For `Cc1cccc(-c2cnc(C)nc2C2CCCN(C(=O)c3cccc(F)c3F)C2)c1` (stereo unspecified), the “bacterial growth OD600” value (polymyxin B 0.75 µg/mL) was 0.182.

For `O=C(NCCN1CCOCC1)c1ccc(N2CCC(NCCn3ccc4ccccc43)CC2)cc1`, the “bacterial growth OD600” value (polymyxin B 0.75 µg/mL) was 0.839.

With `Nc1cc(C(=O)N2CCC(C3CCN(Cc4cccnc4)CC3)C2)ccn1` (stereo unspecified) the “bacterial growth OD600” value (polymyxin B 0.75 µg/mL) was 0.836.

With `CSCCC(=O)NC1CC(=O)N(CCc2cccc(Cl)c2)C1` (stereo unspecified) the “bacterial growth OD600” value (polymyxin B 1 µg/mL) was 0.892.

With `COc1cccc(C(=O)NCC2Cc3cc(C)cc(-c4cc(C(C)=O)ccc4F)c3O2)c1OC` (stereo unspecified) the “bacterial growth OD600” value (polymyxin B 0.75 µg/mL) was 0.5.

Reference: the supplement of paper PMC12889115
